Values of other authors as cited in patent US7785626B2, “Gastric acid secretion inhibiting composition” (OREXO AB, priority 2002, dated 2010).
At least one structure is not confirmed: it was looked up by name or label, or the drawing left a doubt.

Tested on: gastric acid secretion
Settings: days of treatment

Structure (SMILES): COc1ccc2[nH]c([S+]([O-])Cc3ncc(C)c(OC)c3C)nc2c1 (stereo not shown) [omeprazole]
- time until maximal acid-inhibitory effect is reached: about five
